From patent publication US7767669B2, “Small molecule PI 3-kinase inhibitors and methods of their use” (Novartis AG, priority 2002, dated 2010)
pIC50: −log10 of the molar value. Some results were stated once for a whole list of compounds, not compound by compound.

Target: PI3 kinase
Assay: PI3K homogenous solution phase assay (Method 1)
Assay type: biochemical
Settings: homogeneous solution assay (Method 1); read-out: IC50 value with respect to PI3K

Compound | pIC50
Oc1cccc(-c2cc(Nc3ccc4c(c3)NCC4)nc(N3CCOCC3)n2)c1 [Example 39, 3-[6-(2,3-dihydro-1H-indol-6-ylamino)-2-morpholin-4-ylpyrimidin-4-yl]phenol] | > 4.70
CC(=O)N1CCc2ccc(Nc3cc(-c4cccc(O)c4)nc(N4CCOCC4)n3)cc21 [Example 34, 3-{6-[(1-acetyl-2,3-dihydro-1H-indol-6-yl)amino]-2-morpholin-4-ylpyrimidin-4-yl}phenol] | > 4.70
Oc1cccc(-c2cc(Nc3ccc4cn[nH]c4c3)nc(N3CCOCC3)n2)c1 [Example 40, 3-[6-(1H-indazol-6-ylamino)-2-morpholin-4-ylpyrimidin-4-yl]phenol] | > 4.70
